PubChem BioAssay AID1671195 – Yale University – 2021
In all, the deposit lists about 22,000 reagents; this is a random part of them. About 1,510 of them (6.9%) count as active. 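Active includes knockdowns raising or lowering LDL uptake; positive z-scores mean more uptake, negative mean less.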 Unmarked entries are inactive.

Test: 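Knockdowns that increase or decrease uptake of fluorescent LDL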 (primary screen)
System: human Huh7 hepatoma cells
Knock-down reagent: siRNA pool against human genes, 18 nM
Time to read-out: about 2 to 2.5 days of knockdown, then 8 h LDL uptake
Treatment: DiI-labelled LDL at 30 µg/ml for 8 h, in lipoprotein-deficient serum medium
Measured: 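Fluorescent LDL signal imaged in cells, scaled to the plate median, robust z-score for each replicate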
Scale: robust z-score: higher = more LDL uptake after knockdown
Rule for the call: 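a gene counts as active if at least two replicate z-scores exceed ±2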

For ANKRD55, what does the deposit list?
robust z-score, replicate 1: 0.977; robust z-score, replicate 2: 0.76; robust z-score, replicate 3: 0.763

What did the screen give for ECPAS?
robust z-score, replicate 1: 0.205; robust z-score, replicate 2: 0.934; robust z-score, replicate 3: -0.513

What is on record for TSPAN19?
robust z-score, replicate 1: 0.396; robust z-score, replicate 2: 0.666; robust z-score, replicate 3: 0.0785

How did the screen score STK11?
robust z-score, replicate 1: 0.216; robust z-score, replicate 2: 0.318; robust z-score, replicate 3: 0.467

With CA5B, how do the results read?
robust z-score, replicate 1: 0.878; robust z-score, replicate 2: 1.3; robust z-score, replicate 3: 0.297

What is on record for COLEC10?
robust z-score, replicate 1: -0.447; robust z-score, replicate 2: -0.845; robust z-score, replicate 3: -1.7

Copied from above (2 entries):
TSPAN19 | robust z-score, replicate 1: 0.396; robust z-score, replicate 2: 0.666; robust z-score, replicate 3: 0.0785
STK11 | robust z-score, replicate 1: 0.216; robust z-score, replicate 2: 0.318; robust z-score, replicate 3: 0.467

The list goes on:
What is on record for ERP27?
robust z-score, replicate 1: -1.15; robust z-score, replicate 2: -0.493; robust z-score, replicate 3: 0.141

With PRSS33, what was measured?
robust z-score, replicate 1: 0.000474; robust z-score, replicate 2: 0.415; robust z-score, replicate 3: 0.258

Which result is listed for LOC401079 (retired record)?
robust z-score, replicate 1: 0.123; robust z-score, replicate 2: 0.651; robust z-score, replicate 3: 0.141

What is on record for ZFAND4?
robust z-score, replicate 1: -0.109; robust z-score, replicate 2: -0.234; robust z-score, replicate 3: -0.357

For LINC00917, how do the results read?
robust z-score, replicate 1: -0.245; robust z-score, replicate 2: 0.789; robust z-score, replicate 3: 0.161

For FADS6, what does the deposit list?
robust z-score, replicate 1: 0.897; robust z-score, replicate 2: 0.917; robust z-score, replicate 3: 1.48
